Experimental data taken from PMC12724340.
Results are given in words; binding and its absence hold for the method and conditions named. In cells and extracts the contact can be indirect. Here binding means that the protein was enriched with, or labelled near, the bait; the list need not be complete.

Sequences of proteins named here, by UniProt entry; tags and fusion partners are left off.
UniProt P49674: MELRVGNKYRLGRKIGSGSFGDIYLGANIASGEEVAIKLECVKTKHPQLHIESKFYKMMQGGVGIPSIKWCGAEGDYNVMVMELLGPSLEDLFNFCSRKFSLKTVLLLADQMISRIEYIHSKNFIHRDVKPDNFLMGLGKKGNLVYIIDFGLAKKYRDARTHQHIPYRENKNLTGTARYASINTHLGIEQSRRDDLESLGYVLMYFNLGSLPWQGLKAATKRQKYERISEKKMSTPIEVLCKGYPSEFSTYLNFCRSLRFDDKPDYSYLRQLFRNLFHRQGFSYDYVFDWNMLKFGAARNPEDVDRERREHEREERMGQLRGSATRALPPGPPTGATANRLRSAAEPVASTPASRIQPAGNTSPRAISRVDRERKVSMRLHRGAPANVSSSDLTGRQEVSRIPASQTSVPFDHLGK

Biological target: HA-Flag-SHFL (Shiftless) (UniProt Q9NUL5)
Assay: affinity purification with mass spectrometry; HA-Flag tandem affinity purification of HA-Flag-SHFL from doxycycline-induced HEK293 cells; lysate in Co-IP buffer (150 mM NaCl, 25 mM Tris-HCl pH 7.4, 2 mM MgCl2, 0.5% IGEPAL CA-630) with 250 U/mL Benzonase; label-free quantification

binding: binds
Substance: endogenous casein kinase 1 epsilon (CK1ε) (from UniProt P49674 1-416) (enzyme)
